From the supplement of paper PMC7024190 come the findings set out here.

Molecules are shown by their SMILES. Structures can show the parent of a compound that is named as a salt. The list shows a part of the results. This data set is noisy: repeats of one test often differ as much as different tests do.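 Human embryonic kidney cells were transiently transfected with a plasmid bearing a Renilla luciferase gene under the HSV-TK promoter. This first-round screen tests roughly ten thousand compounds for ones that increase reporter output.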

The experiment concerns HEK 293FT. In words: log relative Renilla luciferase luminescence (reporter expression vs reference, reference not stated) (log (base not stated)); higher = higher recombinant reporter expression. The settings on record: 10 µM; time after transfection 48 h.
Turning to `COC(=O)C(c1ccccc1)C1CCCCN1` (stereo not given) [methylphenidate hydrochloride], the log worked out at 0.0583.

As to `CC(=O)OCC1=C(C(=O)O)N2C(=O)[C@@H](N)[C@H]2SC1` [7-aminocephalosporanic acid], the log worked out at 0.117. For `CO[C@]12C[C@@H](COC(=O)c3cncc(Br)c3)CN(C)[C@@H]1Cc1cn(C)c3cccc2c13` [nicergoline], the log was 0.102. In the case of `C/C=C(/C)C(=O)O[C@H]1CC[C@@]2(C)[C@@H]3CC[C@H]4[C@]5(O)C[C@H](O)[C@@]6(O)[C@@H](CN7C[C@@H](C)CC[C@H]7[C@@]6(C)O)[C@]5(O)C[C@]42O[C@]13O` [veratrine sulfate], the log was -0.0721. Take `O=C1NC(=O)C(=O)C(=O)N1` [alloxan]: the log is 0.0176. As to `CC(C)C[C@H](CN)CC(=O)O` [pregabalin], the log stood at 0.118. For the molecule `CN(C)C(=S)SSC(=S)N(C)C` [thiram], the log is -2.02. Take `CCC(C)(C)O` [amylene hydrate]: the log is 0.0884. For the molecule `CC(C)(C)NCC(O)c1ccccc1Cl` (stereo not given) [tulobuterol hydrochloride], the log amounted to 0.00499. For `COc1cc2c(cc1-c1cc3cc4ccoc4cc3oc1=O)OCO2` [pachyrrhizin], the log was -0.128.

In the case of `CC1=C2[C@H]3OC(=O)[C@@H](C)[C@@H]3CC[C@@]2(C)C=CC1=O` [santonin], the log amounted to 0.0192. Regarding `CCC(N)C(O)c1ccc(O)c(O)c1` (stereo not given) [ethylnorepinephrine hydrochloride], the log is 0.00789. With `O=C1C=C2C(=CCOC2O)O1` (stereo not given) [patulin], the log is -1.51. As for `COc1ccc(CCN2CCC(Nc3nc4ccccc4n3Cc3ccc(F)cc3)CC2)cc1` [astemizole], the log stood at 0.2. For the molecule `CC(=O)O[C@H]1C[C@H](O[C@H]2[C@@H](O)C[C@H](O[C@H]3[C@@H](O)C[C@H](O[C@H]4CC[C@@]5(C)[C@H](CC[C@@H]6[C@@H]5C[C@@H](O)[C@]5(C)[C@@H](C7=CC(=O)OC7)CC[C@]65O)C4)O[C@@H]3C)O[C@@H]2C)O[C@H](C)[C@H]1O[C@@H]1O[C@H](CO)[C@@H](O)[C@H](O)[C@H]1O` [lanatoside c], the log is -1.61. Turning to `Oc1cc(Cl)ccc1Oc1ccc(Cl)cc1Cl` [triclosan], the log is -0.539. With `CC1(C)C(C=C(Cl)Cl)C1C(=O)OC(C#N)c1cccc(Oc2ccccc2)c1` (stereo not given) [cypermethrin], the log was -0.00227. Consider `COc1ccc(Cc2nccc3cc(OC)c(OC)cc23)cc1OC` [papaverine hydrochloride], for which the log was -0.546. With `CCC1(CC)C(=O)C=CNC1=O` [pyrithyldione], the log came to 0.0521. Regarding `COc1cc2c(c(OC)c1OC)-c1ccc(=O)c(O)cc1[C@@H](NC(C)=O)CC2` [colchiceine], the log was -0.00674.
